The exact form of at least one protein or probe is not confirmed. Tags and fusion partners may be left off the protein sequences shown.
Tested on: T1, SB transposase N123 (N-terminal 123 aa DNA-binding domain) (Sleeping Beauty (synthetic, salmonid-derived))
T1 sequence: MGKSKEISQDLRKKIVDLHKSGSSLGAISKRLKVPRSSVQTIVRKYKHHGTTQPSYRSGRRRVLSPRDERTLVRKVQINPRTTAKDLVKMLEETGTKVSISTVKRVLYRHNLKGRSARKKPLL
Test: EMSA
Conditions: 25 C, purified recombinant protein, protein details: C-terminal His6 (pET21d, E. coli), label: 32P 5'

**Q.** Does “CCTTGAAATACATCCACAGGTACACCTCCAATTGACTCAAATGATGTCAATTAGTCTATCAGAAGCTTCTAAAGCCATGACATCATTTTCTGGAATTTTCCAAGCTGTTTAAAGGCACAGTCAACTTAGTGTATGTAAACTTCTGACCCACTGGAATTGTGATACAGTGAATTATAAGTGAAATAATCTGTCTGTAAACAATTGTTGGAAAAATGACTTGTGTCATGCACAAAGTAGATGTCCTAACTGACTTGCCAAAACTATTGTTTGTTAACAAGAAATTTGTGGAGTAGTTGAAAAACGAGTTTTAATGACTCCAACTTAAGTGTATGTAAACTTCCGACTTCAACTGTA (double strand) [IR/DR-L fragment about 300 bp, CpG methylated]” bind (5mC at CpG (SssI), no effect of methylation on binding or competition)?
**A.** Result: binds

**Q.** Does “CCTTGAAATACATCCACAGGTACACCTCCAATTGACTCAAATGATGTCAATTAGTCTATCAGAAGCTTCTAAAGCCATGACATCATTTTCTGGAATTTTCCAAGCTGTTTAAAGGCACAGTCAACTTAGTGTATGTAAACTTCTGACCCACTGGAATTGTGATACAGTGAATTATAAGTGAAATAATCTGTCTGTAAACAATTGTTGGAAAAATGACTTGTGTCATGCACAAAGTAGATGTCCTAACTGACTTGCCAAAACTATTGTTTGTTAACAAGAAATTTGTGGAGTAGTTGAAAAACGAGTTTTAATGACTCCAACTTAAGTGTATGTAAACTTCCGACTTCAACTGTA (double strand) [IR/DR-L fragment about 300 bp, unmethylated]” bind (complexes C1 and C2 correspond to one and two N123 per IR/DR)?
**A.** Result: binds
